Results are given in words; binding and its absence hold for the method and conditions named. Binding seen in cells or lysates may run through a third protein. Some entries that bind do so weakly or less than the wild type. For some assays here: Sequences can lack the tags named with a protein.
Tests used:
[1] = biological target: T1, tridecapeptide (P0) … fused with GFP; assay: co-IP; cell lysates incubated overnight at 4 °C with agarose beads coated with a GFP antibody; beads rinsed five times; immunoblot for ZO-1
T1 sequence: RASSRPRPDDLEI

Chains of the proteins cited; added tags and fusions are not shown.
UniProt Q07157: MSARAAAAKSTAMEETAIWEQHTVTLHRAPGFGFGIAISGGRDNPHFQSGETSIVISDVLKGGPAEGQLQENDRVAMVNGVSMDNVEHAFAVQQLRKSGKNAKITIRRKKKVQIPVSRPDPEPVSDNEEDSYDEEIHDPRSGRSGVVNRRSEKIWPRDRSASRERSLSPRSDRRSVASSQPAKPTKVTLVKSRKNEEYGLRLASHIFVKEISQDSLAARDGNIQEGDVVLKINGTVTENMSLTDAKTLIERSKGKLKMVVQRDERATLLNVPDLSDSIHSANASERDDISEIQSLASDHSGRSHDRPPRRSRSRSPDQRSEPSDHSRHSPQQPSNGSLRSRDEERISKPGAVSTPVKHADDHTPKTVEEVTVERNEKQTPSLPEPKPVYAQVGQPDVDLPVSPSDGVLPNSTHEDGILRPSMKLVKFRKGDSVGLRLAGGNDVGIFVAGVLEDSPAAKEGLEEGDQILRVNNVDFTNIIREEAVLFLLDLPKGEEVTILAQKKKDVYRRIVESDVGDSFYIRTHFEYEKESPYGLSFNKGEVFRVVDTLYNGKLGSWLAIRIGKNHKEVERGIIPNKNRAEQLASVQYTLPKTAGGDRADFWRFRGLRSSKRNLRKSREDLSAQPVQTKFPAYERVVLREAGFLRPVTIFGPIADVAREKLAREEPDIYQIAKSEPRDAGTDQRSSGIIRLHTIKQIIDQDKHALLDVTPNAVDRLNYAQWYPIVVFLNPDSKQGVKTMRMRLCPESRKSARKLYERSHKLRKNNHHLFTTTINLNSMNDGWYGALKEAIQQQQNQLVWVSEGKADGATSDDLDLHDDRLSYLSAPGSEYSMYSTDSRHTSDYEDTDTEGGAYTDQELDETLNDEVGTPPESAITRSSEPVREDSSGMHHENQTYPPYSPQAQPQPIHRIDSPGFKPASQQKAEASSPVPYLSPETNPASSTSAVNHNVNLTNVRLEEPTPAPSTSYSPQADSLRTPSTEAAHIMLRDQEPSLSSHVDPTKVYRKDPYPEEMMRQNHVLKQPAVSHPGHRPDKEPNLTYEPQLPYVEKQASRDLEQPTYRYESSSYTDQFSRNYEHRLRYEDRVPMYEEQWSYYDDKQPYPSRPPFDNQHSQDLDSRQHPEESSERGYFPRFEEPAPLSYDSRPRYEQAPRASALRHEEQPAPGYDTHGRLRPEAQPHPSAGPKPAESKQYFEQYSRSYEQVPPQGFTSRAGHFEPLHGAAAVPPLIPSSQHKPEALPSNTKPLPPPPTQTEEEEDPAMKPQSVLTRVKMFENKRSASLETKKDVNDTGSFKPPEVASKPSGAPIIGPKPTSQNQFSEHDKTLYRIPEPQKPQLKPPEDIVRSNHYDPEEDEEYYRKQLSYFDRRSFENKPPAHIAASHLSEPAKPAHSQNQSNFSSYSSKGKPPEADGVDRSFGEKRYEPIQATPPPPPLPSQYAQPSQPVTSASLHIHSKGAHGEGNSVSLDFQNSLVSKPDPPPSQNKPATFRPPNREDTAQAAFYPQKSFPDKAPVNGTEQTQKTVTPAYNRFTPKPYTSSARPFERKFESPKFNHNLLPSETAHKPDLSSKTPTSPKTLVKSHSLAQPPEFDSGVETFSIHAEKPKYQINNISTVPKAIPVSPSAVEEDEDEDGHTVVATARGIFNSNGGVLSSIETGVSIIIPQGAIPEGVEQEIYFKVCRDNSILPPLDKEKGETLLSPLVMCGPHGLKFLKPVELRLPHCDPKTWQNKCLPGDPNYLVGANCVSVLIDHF

[2] = biological target: T2, biotin-modified Cx43-derived tridecapeptide P1: (biotin-Lys) …; assay: pull-down; biotin-modified peptide P1 incubated in lysates of ZO-1-transfected HEK293 cells at room temperature for 4 h; captured on streptavidin beads; beads rinsed five times; immunoblot for ZO-1; only the target purified
T2 sequence (peptide, biotin on the introduced lysine (biotin-Lys) before the recognition unit): KRASSRPRPDDLEI

Row | binding [1] | binding [2] | Substance
1 | binds |  | zonula occludens-1 (ZO-1) in the lysate of the GFP immunoprecipitation (from UniProt Q07157 1-1748)
2 |  | binds | zonula occludens-1 (ZO-1), overexpressed in HEK293 cells (from UniProt Q07157 1-1748)

From PMC10935238
